From paper PMC11631767 come the findings set out here.

Chains of the proteins cited; added tags and fusions are not shown.
UniProt Q07666: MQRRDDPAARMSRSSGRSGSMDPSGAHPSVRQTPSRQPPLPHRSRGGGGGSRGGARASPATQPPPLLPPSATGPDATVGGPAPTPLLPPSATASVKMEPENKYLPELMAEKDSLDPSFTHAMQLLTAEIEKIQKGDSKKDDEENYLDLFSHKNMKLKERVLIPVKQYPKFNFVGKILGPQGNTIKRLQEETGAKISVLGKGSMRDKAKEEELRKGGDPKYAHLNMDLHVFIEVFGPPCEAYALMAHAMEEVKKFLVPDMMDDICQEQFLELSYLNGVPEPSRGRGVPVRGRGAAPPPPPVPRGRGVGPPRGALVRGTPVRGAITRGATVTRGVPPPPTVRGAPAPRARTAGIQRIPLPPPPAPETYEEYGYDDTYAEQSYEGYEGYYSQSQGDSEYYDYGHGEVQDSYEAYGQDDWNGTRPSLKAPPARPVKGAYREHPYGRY
UniProt P62993: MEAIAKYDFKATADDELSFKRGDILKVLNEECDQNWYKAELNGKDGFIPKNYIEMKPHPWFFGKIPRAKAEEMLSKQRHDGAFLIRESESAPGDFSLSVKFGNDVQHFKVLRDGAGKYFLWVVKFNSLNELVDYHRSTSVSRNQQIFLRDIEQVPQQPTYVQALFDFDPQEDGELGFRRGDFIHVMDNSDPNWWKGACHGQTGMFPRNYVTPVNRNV

In assay [1] the target is Src-Associated in Mitosis 68-kDa (SAM68) protein (human (endogenous in Beas2B)) (UniProt Q07666). Kind of assay: condition: only cells treated with 1 μM YB-0158 for 1 h; co-IP; Sam68 immunoprecipitation from lysates of Beas2B cells treated with 1 μM YB-0158 for 1 h, blot for Grb2; both endogenous.
For assay [2] the target is unchanged. Kind of assay: co-IP; Sam68 immunoprecipitation from lysates of Beas2B cells, blot for Grb2; both endogenous.

These are yes or no findings as the source states them, for the method shown. In cells and extracts the contact can be indirect. Some results given as binding are weak or reduced against the parent protein; the word gives no strength.

Consider Grb2 (from UniProt P62993 1-217), for which the binding result in assay [1] is “no binding”; in assay [2], “binds”.
